In PubChem BioAssay AID276 (DTP/NCI, 2004) one finds survivor count and T/C data, which are given here for 27 molecules.

SMILES strings stand for the structures. The list shows only some results of the screen, not a fair sample: it is rich in T/C values a quarter to a half above the control, in often repeated tests (any T/C) and in doses without a T/C. Other doses and runs of a compound stand elsewhere. T/C gives the treated animals as a percentage of the vehicle group. Some entries give survivors of the animals treated and no T/C: the source files T/C as zero there, which appears to mark a toxic dose or a test without result, not a measured value. Some doses without a T/C left all or most animals alive at the check, yet need not have been tolerated: survival well below the control is almost never listed, so the zero probably covers shortened survival too. Survivors were counted at the toxicity check, usually on the fifth day, unless a day is given; later deaths do not show. Schedules are NCI's codes, read here as Q, the interval in days (D) or hours (H), X, the number of doses. Some doses were run more than once; the values are given in rising order. Where survival is the endpoint, this PubChem deposit counts one and a half times the control or more as active, and values a quarter to a half above the control carry no call in these data; other NCI protocols may use other cut-offs.

For the assay, the system named is B6C3F1 mice, Lewis lung carcinoma iv, survival T/C. In words: NCI In Vivo Anticancer Drug Screen. Data for tumor model Lewis Lung Carcinoma (intravenous) in B6C3F1 mice. As to conditions: T/C endpoint: median survival time, higher T/C = longer survival. The method, boiled down:
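Tumors were transplanted into mice, which were then dosed with compound or vehicle. Survival was recorded in each group, and the treated figure was divided by the control figure.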

The mark [1] stands for this setting: dose: 12.5 mg/kg/injection, schedule: Q01DX009 (ip), vehicle: suspension in saline.
Setting [2] is: dose: 25.0 mg/kg/injection, schedule: Q01DX009 (ip), vehicle: suspension in saline.
[3] abbreviates: dose: 50.0 mg/kg/injection, schedule: Q01DX009 (ip), vehicle: saline.
Setting [4] is: dose: 50.0 mg/kg/injection, schedule: Q01DX009 (ip), vehicle: suspension in saline.
Where [5] appears, read: dose: 200.0 mg/kg/injection, schedule: Q01DX009 (ip), vehicle: saline with Tween-80.
The mark [6] stands for this setting: dose: 50.0 mg/kg/injection, schedule: Q01DX009 (ip), vehicle: saline with Tween-80.
Setting [7] is: dose: 100.0 mg/kg/injection, schedule: Q01DX009 (ip), vehicle: saline with Tween-80.
Where [8] appears, read: dose: 400.0 mg/kg/injection, schedule: Q01DX009 (ip), vehicle: saline with Tween-80.
The mark [9] stands for this setting: dose: 50.0 mg/kg/injection, schedule: Q01DX009 (ip), vehicle: Klucel (hydroxypropylcellulose) (HPC).
[10] abbreviates: dose: 400.0 mg/kg/injection, schedule: Q01DX009 (ip), vehicle: saline.
Setting [11] is: dose: 400.0 mg/kg/injection, schedule: Q01DX009 (ip), vehicle: Klucel (hydroxypropylcellulose) (HPC).
Where [12] appears, read: dose: 512.0 mg/kg/injection, schedule: Q01DX009 (ip), vehicle: saline with Tween-80.
Where [13] appears, read: dose: 20.0 mg/kg/injection, schedule: Q01DX009 (ip), vehicle: saline.
Where [14] appears, read: dose: 40.0 mg/kg/injection, schedule: Q01DX009 (ip), vehicle: saline.

With `CCN(CC)CC[n+]1ccc2c(C)c3[nH]c4ccc(O)cc4c3c(C)c2c1`, the survivor count is 10 of 10 under setting [1]; 9 of 10 (dose: 25.0 mg/kg/injection, schedule: Q01DX009 (ip), vehicle: saline); 10 of 10 under setting [2]; 8 of 10 under setting [3]; 5 of 10 under setting [4].
For `COc1ccc2c(ccc3oc([N+](=O)[O-])cc32)c1`, the survivor count under setting [5] is 10 of 10.
As for `Nc1cc2c3c(cccc3c1)C(=O)N(CCN1CCCC1)C2=O`, the T/C under setting [6] is 138 % of control. For the same molecule, under setting [7], the survivor count is recorded as 10 of 10.
Turning to `NC(=S)N/N=C/c1ccc(OC(=O)COc2ccc(Cl)cc2)cn1`, the survivor count is recorded as 10 of 10 under setting [5] and 10 of 10 under setting [8]. Moreover, the T/C under setting [8] is 137 % of control.
For `COC(=O)Nc1cn2ccc(C(Cl)=C(Cl)Cl)cc2n1`, the T/C under setting [9] is 127 % of control.
Consider `NC1=NC(=O)N2CC12` (configuration not stated), for which, under setting [3], the T/C was 125 % of control. Further, under setting [10], the survivor count is on record as 2 of 10.
In the case of `O=c1nc(-c2ccco2)sc(=O)[nH]1`, the survivor count under setting [11] is 0 of 10.
For `COc1ccc(CC2C(=O)NC(C)C(=O)N(C)C3Cc4ccc(cc4)Oc4cc(ccc4O)CC(C(=O)NC(C)C(=O)NC(C)C(=O)N2C)N(C)C3=O)cc1` (configuration not stated), the survivor count (dose: 4.0 mg/kg/injection, schedule: Q01DX009 (ip), vehicle: saline with Tween-80) is 10 of 10.
For `Cc1c(O)ccc(=O)n1O`, the survivor count is on record as 7 of 10 (dose: 256.0 mg/kg/injection, schedule: Q01DX009 (ip), vehicle: saline with Tween-80) and 0 of 10 under setting [12].
For `O=NN(CCF)C(=O)NCCO`, the T/C (dose: 2.5 mg/kg/injection, schedule: Q01DX009 (ip), vehicle: saline) is 131 % of control. Also, the survivor count is on record as 8 of 10 on day 9 under setting [13] and 0 of 10 on day 9 under setting [14].
Turning to `C=C(C)/C([O-])=N/[N+](C)(C)CC(O)CCCCCCCCCCCC` (configuration not stated), the survivor count is recorded as 2 of 10 (dose: 400.0 mg/kg/injection, schedule: Q01DX001 (ip), vehicle: saline) and 0 of 10 (dose: 800.0 mg/kg/injection, schedule: Q01DX001 (ip), vehicle: saline).
Take `COC1/C=C/C=C(/C)Cc2cc(O)c(Cl)c(c2)N(C)C(=O)CC(OC(=O)C(C)C)C2(C)OC2C(C)C2CC1(O)NC(=O)O2` (configuration not stated): the survivor count reads like this: (dose: 1.0 mg/kg/injection, schedule: Q01DX009 (ip), vehicle: saline + alcohol) 9 of 10; (dose: 2.0 mg/kg/injection, schedule: Q01DX009 (ip), vehicle: saline + alcohol) 3 of 10; (dose: 4.0 mg/kg/injection, schedule: Q01DX009 (ip), vehicle: saline + alcohol) 0 of 10.
As for `Cc1cc(NCCCCCCNc2cc(C)nc3cc(N(C)C)ccc23)c2ccc(N(C)C)cc2n1`, the survivor count is, setting by setting: (dose: 50.0 mg/kg/injection, schedule: Q01DX009 (ip), vehicle: distilled water + Tween-80 + alcohol) 9 of 10; (dose: 100.0 mg/kg/injection, schedule: Q01DX009 (ip), vehicle: distilled water + Tween-80 + alcohol) 0 of 10.
Take `C[C@H](N)C(=O)N[C@@H]1[C@H]2C(=C(O)C[C@@H](O)[C@@H]2O)C(=O)O[C@@H]1C`: the T/C (dose: 1200.0 mg/kg/injection, schedule: Q01DX009 (ip), vehicle: saline) was 125 % of control. Where the note is “dose: 2400.0 mg/kg/injection, schedule: Q01DX009 (ip), vehicle: saline”, the survivor count is 1 of 10 and 4 of 10.
As to `O=NN(CCF)C(=O)NC1CCC(=O)NC1=O` (configuration not stated), for the setting “dose: 5.0 mg/kg/injection, schedule: Q01DX009 (ip), vehicle: saline”, the T/C is 128 % of control. Besides, under setting [14], the survivor count is given as 7 of 10 on day 9.
Regarding `COc1cc2cc3cc4cc(OC)c(OC)cc4c(C)[n+]3cc2cc1OC` (tested in a mixture with another compound), the survivor count by setting is: (dose: 200.0 mg/kg/injection, schedule: Q01DX009 (ip), vehicle: saline) 10 of 10; under setting [10], 4 of 10.
In the case of `C=C1C(=O)OC2/C=C(\C)CC(O)/C=C(/CO)CC(OC(=O)/C(C)=C/C)C12` (configuration not stated), the survivor count (dose: 60.0 mg/kg/injection, schedule: Q01DX009 (ip), vehicle: saline with Tween-80) is reported as 10 of 10 and the survivor count (dose: 120.0 mg/kg/injection, schedule: Q01DX009 (ip), vehicle: saline with Tween-80) is listed as 4 of 10.
As to `COc1nc(C(Cl)(Cl)Cl)c(Cl)c(OC)c1Cl`, the survivor count runs as follows: (dose: 200.0 mg/kg/injection, schedule: Q01DX008 (ip), vehicle: Klucel (hydroxypropylcellulose) (HPC)) 10 of 10; (dose: 400.0 mg/kg/injection, schedule: Q01DX008 (ip), vehicle: Klucel (hydroxypropylcellulose) (HPC)) 5 of 10.
For `Cc1[nH]ccc(=O)c1O`, the survivor count under setting [12] is 8 of 10.
`[Cl][Pt+2][Cl].[NH-]CC1(C[NH-])CCC1`: the survivor count (dose: 6.25 mg/kg/injection, schedule: Q01DX009 (ip), vehicle: suspension in saline) is listed as 9 of 10; the survivor count under setting [1] is on record as 0 of 10; the survivor count under setting [2] is 3 of 10; the survivor count under setting [4] is 1 of 10.
For `C[C@]12CCC(=O)C=C1CC[C@@H]1[C@@H]2C(=O)C[C@@]2(C)[C@H]1CC[C@]2(O)C(=O)CO`, the survivor count (dose: 800.0 mg/kg/injection, schedule: Q01DX009 (ip), vehicle: Klucel (hydroxypropylcellulose) (HPC)) is recorded as 10 of 10.
Regarding `Cc1ccc(NCCN(C)C)c2c(=O)c3cc(O)ccc3sc12`, the T/C under setting [9] is 133 % of control. Also, the survivor count reads like this: (dose: 100.0 mg/kg/injection, schedule: Q01DX009 (ip), vehicle: Klucel (hydroxypropylcellulose) (HPC)) 7 of 10; (dose: 200.0 mg/kg/injection, schedule: Q01DX009 (ip), vehicle: Klucel (hydroxypropylcellulose) (HPC)) 0 of 10 and 6 of 10; under setting [11], 0 of 10.
With `COc1cccc2c1C(=O)c1c(O)c3c(c(O)c1C2=O)CC(O)(C(=O)CO)CC3OC1CC(N)C(O)C(C)O1` (configuration not stated), the T/C was 130 % of control (dose: 12.5 mg/kg/injection, schedule: Q01DX009 (ip), vehicle: saline) and 128 % of control (dose: 36.0 mg/kg/injection, schedule: Q01DX009 (ip), vehicle: water). Further, the survivor count runs as follows: (dose: 30.0 mg/kg/injection, schedule: Q01DX009 (ip), vehicle: water) 10 of 10; (dose: 72.0 mg/kg/injection, schedule: Q01DX009 (ip), vehicle: water) 10 of 10; (dose: 144.0 mg/kg/injection, schedule: Q01DX009 (ip), vehicle: water) 10 of 10.
For the molecule `O=C1NC(=O)C2C3C=CC(C12)C1C2C(=O)NC(=O)C2C31` (configuration not stated), the T/C under setting [6] is 131 % of control. The survivor count was 10 of 10 under setting [7]; 9 of 10 under setting [5]; 0 of 10 and 3 of 10 under setting [8].
Consider `CCOC(=O)C1=C(C#N)C2(CCC(OCc3ccccc3)CC2)C(=O)O1` (configuration not stated), for which the survivor count (dose: 400.0 mg/kg/injection, schedule: Q01DX009 (ip), vehicle: suspension in saline) is listed as 9 of 10.
Consider `COc1ccc2ccccc2c1C1NC(=O)c2ccccc2N1` (configuration not stated), for which, under setting [9], the T/C was 128 % of control.
As to `O=c1[nH]cc(F)c(=O)[nH]1`, the T/C under setting [13] is 128 % of control. Further, the survivor count by setting is: under setting [14], 9 of 10 and 10 of 10; (dose: 80.0 mg/kg/injection, schedule: Q01DX009 (ip), vehicle: saline) 10 of 10.
